These are yes or no findings as the source states them, for the method shown. In cells and extracts the contact can be indirect. Some binding calls cover weakened binding; strength is not graded here.
Biological target: T1, AIDA-1 (APP intracellular domain associated 1), encoded by Anks1b (mouse (endogenous in mouse brain)) (UniProt Q8BIZ1)
T1 sequence: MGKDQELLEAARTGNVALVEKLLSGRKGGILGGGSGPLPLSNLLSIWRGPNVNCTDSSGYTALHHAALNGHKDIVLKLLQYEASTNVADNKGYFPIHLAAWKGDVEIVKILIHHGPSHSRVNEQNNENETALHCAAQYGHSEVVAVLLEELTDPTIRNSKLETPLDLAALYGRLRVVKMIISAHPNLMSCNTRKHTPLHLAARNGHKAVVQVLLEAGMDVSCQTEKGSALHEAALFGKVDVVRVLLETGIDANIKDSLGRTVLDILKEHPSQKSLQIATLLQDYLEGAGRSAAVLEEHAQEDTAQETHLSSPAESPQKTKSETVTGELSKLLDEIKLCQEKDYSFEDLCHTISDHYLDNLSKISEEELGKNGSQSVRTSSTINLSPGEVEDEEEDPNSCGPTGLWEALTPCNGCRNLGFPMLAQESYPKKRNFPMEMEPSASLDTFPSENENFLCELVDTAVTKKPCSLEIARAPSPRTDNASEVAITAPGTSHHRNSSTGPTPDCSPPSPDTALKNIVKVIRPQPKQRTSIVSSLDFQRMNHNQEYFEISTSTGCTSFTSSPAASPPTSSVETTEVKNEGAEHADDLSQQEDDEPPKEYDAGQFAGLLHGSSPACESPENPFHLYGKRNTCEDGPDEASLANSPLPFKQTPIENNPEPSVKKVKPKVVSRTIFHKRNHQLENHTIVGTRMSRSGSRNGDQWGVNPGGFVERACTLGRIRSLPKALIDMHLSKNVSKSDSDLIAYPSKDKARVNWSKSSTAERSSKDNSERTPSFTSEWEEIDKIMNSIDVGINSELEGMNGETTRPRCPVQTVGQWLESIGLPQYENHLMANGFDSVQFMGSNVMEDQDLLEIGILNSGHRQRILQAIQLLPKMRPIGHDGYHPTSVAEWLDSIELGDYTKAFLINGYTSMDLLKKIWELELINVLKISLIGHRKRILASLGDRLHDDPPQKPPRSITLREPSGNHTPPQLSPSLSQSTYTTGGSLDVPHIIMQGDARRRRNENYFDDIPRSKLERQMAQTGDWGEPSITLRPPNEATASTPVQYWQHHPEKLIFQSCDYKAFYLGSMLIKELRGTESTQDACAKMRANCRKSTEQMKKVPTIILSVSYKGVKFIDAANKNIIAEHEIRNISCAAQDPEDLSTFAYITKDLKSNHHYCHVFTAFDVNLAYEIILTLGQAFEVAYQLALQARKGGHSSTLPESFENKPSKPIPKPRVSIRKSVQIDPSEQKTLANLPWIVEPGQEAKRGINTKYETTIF
Experiment: co-IP; independent co-IP from mouse brain lysates, western blot; which protein was precipitated is not told

Sequences of proteins named here, by UniProt entry; tags and fusion partners are left off.
UniProt P17427: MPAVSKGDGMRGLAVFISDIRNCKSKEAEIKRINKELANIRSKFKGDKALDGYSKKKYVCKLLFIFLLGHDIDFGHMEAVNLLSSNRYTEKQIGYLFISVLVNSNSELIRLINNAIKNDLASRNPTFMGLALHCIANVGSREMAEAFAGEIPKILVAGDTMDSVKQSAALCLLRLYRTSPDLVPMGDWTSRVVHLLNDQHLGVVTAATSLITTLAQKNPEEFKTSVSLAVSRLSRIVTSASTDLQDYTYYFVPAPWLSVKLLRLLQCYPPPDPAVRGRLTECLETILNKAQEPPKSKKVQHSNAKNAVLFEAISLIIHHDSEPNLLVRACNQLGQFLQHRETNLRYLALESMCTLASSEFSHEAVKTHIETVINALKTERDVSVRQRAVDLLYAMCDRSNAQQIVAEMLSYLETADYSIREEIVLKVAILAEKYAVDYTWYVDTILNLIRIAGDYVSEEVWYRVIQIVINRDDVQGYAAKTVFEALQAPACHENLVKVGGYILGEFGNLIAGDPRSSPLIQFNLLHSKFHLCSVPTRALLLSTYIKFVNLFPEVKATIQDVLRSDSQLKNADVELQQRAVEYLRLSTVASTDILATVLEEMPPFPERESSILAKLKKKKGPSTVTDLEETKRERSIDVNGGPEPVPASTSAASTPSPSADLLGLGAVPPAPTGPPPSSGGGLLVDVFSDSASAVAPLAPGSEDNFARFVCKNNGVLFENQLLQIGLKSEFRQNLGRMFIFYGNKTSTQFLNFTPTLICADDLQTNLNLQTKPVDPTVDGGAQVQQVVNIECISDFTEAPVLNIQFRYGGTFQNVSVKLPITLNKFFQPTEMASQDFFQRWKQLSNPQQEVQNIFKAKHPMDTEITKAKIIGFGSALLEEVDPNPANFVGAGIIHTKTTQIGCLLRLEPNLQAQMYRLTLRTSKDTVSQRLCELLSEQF
UniProt Q9Z0R4: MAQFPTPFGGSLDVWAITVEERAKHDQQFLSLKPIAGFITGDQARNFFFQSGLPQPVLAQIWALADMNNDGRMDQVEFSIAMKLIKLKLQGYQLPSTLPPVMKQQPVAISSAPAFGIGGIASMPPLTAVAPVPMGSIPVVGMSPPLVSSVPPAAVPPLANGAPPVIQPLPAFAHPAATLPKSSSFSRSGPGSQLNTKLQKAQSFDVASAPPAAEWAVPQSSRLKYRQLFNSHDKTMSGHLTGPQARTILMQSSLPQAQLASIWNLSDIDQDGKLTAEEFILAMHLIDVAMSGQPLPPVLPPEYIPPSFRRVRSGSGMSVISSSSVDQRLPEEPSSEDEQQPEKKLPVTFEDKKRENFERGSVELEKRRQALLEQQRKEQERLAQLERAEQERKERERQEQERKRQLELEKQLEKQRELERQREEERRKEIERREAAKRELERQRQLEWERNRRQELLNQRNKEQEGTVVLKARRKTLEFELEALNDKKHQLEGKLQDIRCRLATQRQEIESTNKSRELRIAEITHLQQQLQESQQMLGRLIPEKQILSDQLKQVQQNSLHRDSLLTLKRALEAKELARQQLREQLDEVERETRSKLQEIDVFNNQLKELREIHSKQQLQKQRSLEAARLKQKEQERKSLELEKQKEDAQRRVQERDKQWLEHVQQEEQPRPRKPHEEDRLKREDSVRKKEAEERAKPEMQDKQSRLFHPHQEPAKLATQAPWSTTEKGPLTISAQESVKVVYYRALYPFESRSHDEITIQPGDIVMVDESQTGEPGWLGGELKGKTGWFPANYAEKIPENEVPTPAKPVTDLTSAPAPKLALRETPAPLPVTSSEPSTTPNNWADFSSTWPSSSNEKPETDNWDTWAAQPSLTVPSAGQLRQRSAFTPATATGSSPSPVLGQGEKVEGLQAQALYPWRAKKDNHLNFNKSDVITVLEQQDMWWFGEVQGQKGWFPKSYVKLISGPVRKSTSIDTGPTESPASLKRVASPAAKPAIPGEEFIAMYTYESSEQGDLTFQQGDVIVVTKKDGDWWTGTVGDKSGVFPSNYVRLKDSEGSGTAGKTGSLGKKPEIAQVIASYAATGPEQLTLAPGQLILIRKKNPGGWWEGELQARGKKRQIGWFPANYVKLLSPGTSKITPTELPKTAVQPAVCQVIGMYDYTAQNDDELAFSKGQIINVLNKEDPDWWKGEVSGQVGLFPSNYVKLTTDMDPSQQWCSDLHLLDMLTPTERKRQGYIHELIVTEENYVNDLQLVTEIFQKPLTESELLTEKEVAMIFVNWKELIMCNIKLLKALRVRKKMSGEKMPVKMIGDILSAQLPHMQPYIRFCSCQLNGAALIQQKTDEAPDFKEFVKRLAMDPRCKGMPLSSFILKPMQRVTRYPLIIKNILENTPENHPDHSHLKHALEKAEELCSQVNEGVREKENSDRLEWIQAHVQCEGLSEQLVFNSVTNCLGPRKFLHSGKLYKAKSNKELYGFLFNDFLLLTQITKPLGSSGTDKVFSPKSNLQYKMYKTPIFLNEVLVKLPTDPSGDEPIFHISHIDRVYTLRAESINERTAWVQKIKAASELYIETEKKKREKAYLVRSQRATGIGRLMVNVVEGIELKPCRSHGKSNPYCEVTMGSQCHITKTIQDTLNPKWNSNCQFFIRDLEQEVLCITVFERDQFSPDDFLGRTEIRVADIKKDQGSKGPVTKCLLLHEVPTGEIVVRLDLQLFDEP
UniProt P17426: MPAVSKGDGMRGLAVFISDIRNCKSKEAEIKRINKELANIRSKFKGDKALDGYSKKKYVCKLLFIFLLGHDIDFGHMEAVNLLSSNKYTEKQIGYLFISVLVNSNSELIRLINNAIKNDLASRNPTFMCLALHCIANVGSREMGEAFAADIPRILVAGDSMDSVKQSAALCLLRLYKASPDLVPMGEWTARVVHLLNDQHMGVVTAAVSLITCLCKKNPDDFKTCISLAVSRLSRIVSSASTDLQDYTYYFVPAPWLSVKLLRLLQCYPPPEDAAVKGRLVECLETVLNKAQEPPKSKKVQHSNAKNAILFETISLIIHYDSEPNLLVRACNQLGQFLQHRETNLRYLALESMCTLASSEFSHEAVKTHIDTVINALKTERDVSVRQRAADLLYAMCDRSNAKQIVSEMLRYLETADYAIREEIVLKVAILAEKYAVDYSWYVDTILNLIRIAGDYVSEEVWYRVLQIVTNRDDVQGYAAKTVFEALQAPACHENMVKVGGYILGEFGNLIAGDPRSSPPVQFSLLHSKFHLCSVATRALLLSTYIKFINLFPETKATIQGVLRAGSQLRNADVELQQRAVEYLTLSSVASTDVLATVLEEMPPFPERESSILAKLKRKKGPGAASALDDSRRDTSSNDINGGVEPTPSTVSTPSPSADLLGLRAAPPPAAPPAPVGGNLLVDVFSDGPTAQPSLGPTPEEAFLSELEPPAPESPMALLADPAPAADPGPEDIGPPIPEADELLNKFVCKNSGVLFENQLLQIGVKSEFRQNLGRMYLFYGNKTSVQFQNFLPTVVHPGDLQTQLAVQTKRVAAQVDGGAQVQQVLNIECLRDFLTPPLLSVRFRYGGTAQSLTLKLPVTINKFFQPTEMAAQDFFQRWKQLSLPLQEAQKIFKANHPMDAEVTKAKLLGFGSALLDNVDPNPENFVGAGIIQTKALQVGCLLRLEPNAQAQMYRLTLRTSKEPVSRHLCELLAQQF
UniProt Q9QWY8: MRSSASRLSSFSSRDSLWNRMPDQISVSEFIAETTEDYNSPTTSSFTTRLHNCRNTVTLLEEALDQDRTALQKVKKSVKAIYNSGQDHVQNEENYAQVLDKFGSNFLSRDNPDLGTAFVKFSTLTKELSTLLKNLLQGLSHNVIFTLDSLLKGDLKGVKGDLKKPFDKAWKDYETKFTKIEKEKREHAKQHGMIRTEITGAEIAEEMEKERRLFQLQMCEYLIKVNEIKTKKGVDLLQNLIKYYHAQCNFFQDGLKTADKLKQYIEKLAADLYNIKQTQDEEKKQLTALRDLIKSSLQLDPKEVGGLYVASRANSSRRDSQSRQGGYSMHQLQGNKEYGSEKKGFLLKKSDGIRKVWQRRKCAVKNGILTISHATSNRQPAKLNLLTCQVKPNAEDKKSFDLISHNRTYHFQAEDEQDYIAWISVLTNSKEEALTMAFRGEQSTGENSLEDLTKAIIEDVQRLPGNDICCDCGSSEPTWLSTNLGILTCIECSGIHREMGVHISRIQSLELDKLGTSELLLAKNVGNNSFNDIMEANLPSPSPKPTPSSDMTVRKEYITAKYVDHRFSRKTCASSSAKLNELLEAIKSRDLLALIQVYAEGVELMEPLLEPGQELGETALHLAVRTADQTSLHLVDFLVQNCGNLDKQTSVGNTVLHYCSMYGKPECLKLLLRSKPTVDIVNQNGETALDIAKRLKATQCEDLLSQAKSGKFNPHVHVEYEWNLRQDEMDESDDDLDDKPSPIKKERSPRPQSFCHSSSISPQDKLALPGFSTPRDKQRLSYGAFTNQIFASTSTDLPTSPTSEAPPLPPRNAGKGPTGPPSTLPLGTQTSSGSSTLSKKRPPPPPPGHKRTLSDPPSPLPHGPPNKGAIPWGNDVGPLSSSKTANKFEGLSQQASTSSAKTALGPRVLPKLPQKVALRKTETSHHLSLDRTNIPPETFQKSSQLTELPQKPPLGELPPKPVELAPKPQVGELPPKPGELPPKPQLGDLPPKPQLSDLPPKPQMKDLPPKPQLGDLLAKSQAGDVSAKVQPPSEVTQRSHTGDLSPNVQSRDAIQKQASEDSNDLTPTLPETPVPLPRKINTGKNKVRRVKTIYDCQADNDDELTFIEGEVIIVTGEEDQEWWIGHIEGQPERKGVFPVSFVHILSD

## Srgap2 (from UniProt Q91Z67 1-1071)
  binding: binds

## Ap2a2 (from UniProt P17427 1-938)
  binding: binds

## Itsn1 (from UniProt Q9Z0R4 1-1714)
  binding: binds

## Ap2a1 (from UniProt P17426 1-977)
  binding: binds

## Asap1 (from UniProt Q9QWY8 1-1147)
  binding: binds

B1: Git1 (protein, UniProt Q68FF6 1-770)
chain: MSRKGPRAEVCADCSAPDPGWASISRGVLVCDECCSVHRSLGRHISIVKHLRHSAWPPTLLQMVHTLASNGANSIWEHSLLDPAQVQSGRRKANPQDKVHPIKSEFIRAKYQMLAFVHKLPCRDDDGVTAKDLSKQLHSSVRTGNLETCLRLLSLGAQANFFHPEKGTTPLHVAAKAGQTLQAELLVVYGADPGSPDVNGRTPIDYARQAGHHELAERLVECQYELTDRLAFYLCGRKPDHKNGHYIIPQMADRSRQKCMSQSLDLSELAKAAKKKLQALSNRLFEELAMDVYDEVDRRENDAVWLATQNHSTLVTERSAVPFLPVNPEYSATRNQGRQKLARFNAREFATLIIDILSEAKRRQQGKSLSSPTDNLELSARSQSELDDQHDYDSVASDEDTDQEPLPSAGATRNNRARSMDSSDLSDGAVTLQEYLELKKALATSEAKVQQLMKVNSSLSDELRRLQREIHKLQAENLQLRQPPGPVPPPSLPSERAEHTLMGPGGSTHRRDRQAFSMYEPGSALKPFGGTPGDELATRLQPFHSTELEDDAIYSVHVPAGLYRIRKGVSASSVPFTPSSPLLSCSQEGSRHASKLSRHGSGADSDYENTQSGDPLLGLEGKRFLELSKEDELHPELESLDGDLDPGLPSTEDVILKTEQVTKNIQELLRAAQEFKHDSFVPCSEKIHLAVTEMASLFPKRPALEPVRSSLRLLNASAYRLQSECRKTVPPEPGAPVDFQLLTQQVIQCAYDIAKAAKQLVTITTREKKQ
  binding: binds
